The list shows a part of the results.
target: OsWRKY34 (Oryza sativa, UniProt Q0JBA9 1-250); test: protein-binding microarray (RPBM); PBS, 2% BSA, 51.3 ng/ul salmon testes DNA, 50 uM zinc acetate, 200 nM TF, 25 C, 1 h; high values mean tight binding; details: protein: recombinant; tags: N-terminal polyhistidine and DsRed monomer fusion (pET32a); label: CyDye5-dUTP incorporated in the synthesized complementary strand; 3' TTTTT single-stranded linker to array surface; dsDNA, one strand shown
Summary of the method: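 Binding signal is reported as fluorescence intensity per feature (arbitrary units) from an Axon 4000B scanner. Incubation used 200 nM of each Ni–NTA-purified, N-terminally polyhistidine- and DsRed-fused transcription factor from E. coli BL21-CodonPlus on a double-stranded custom Agilent array for 1 h at 25 °C, with 50 µM zinc acetate in the buffer, followed by washing.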

Protein sequences, listed by entry. Tags and fused reporters are not part of them.
UniProt Q0JBA9, entry or part of it: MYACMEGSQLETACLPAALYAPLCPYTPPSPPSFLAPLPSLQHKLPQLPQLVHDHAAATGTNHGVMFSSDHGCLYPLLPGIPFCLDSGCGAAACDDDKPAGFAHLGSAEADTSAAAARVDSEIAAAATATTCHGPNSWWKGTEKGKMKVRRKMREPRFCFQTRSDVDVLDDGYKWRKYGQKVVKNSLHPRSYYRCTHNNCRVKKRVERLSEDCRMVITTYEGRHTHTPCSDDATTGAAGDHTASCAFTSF

Compared with “ACAGAAATTTTAGAGCTATGTTTTGAATGCACAGTTCCTACGGAGTCACCTAGTGCAG”, “TCTCTCTCTACTCCCACTGTCTTGCTGCTCCCGCCGGTCCCGGAGTCACCTAGTGCAG” is higher in binding signal: 8060 fluorescence intensity (a.u.) for the first, 10100 fluorescence intensity (a.u.) for the second.

First: TCTTGTACTACTACGTACTACTCCATCGACGCTCGCCAATCGGAGTCACCTAGTGCAG
Second: AAGTCTGCTATCATTGCGTAATCACGGTTTGTGCCTTTGTCGGAGTCACCTAGTGCAG
The binding signal of the first is lower: 8240 fluorescence intensity (a.u.) for the first, 10400 fluorescence intensity (a.u.) for the second.

Compared with “GTACCGGCGACAGCAACAGCAATTGGTTTCTGCTTCTCGCCGGAGTCACCTAGTGCAG”, “AGTACTACCATCCATCCACAATATCGTTACTGAACAACGTCGGAGTCACCTAGTGCAG” is higher in binding signal: 9270 fluorescence intensity (a.u.) for the first, 9950 fluorescence intensity (a.u.) for the second.

Compared with “GAGGGGACGGCCATGGGTGGGTGGGCCCGGCTCCCGGCTCCGGAGTCACCTAGTGCAG”, “GGCTATTTCTGTACTAGTGATTGGTCACTGCTCACACTGACGGAGTCACCTAGTGCAG” is lower in binding signal: 8880 fluorescence intensity (a.u.) for the first, 8360 fluorescence intensity (a.u.) for the second.

Compared with “ACATGCCAAATTGGCGATTGCCATTGAGTTCCATCCATCCCGGAGTCACCTAGTGCAG”, “CCTTGCCACCCTTGCACGCACATGGCGTTGTGTGCCACGTCGGAGTCACCTAGTGCAG” is higher in binding signal: 8590 fluorescence intensity (a.u.) for the first, 9920 fluorescence intensity (a.u.) for the second.

First: CCATCGCCGCCGCCCTCTTCTTCTTCTTCTTGCGAAGCAACGGAGTCACCTAGTGCAG
Second: CGGTGTACTACTTTTATATATGCAAACCTTTATTGCCTGACGGAGTCACCTAGTGCAG
The binding signal of the first is lower: 8820 fluorescence intensity (a.u.) for the first, 10300 fluorescence intensity (a.u.) for the second.

First: ACTGTGATACATTCTACATAATTTATTCATTTATTTGCATCGGAGTCACCTAGTGCAG
Second: CTGGTTTGGCTATTATTTCCTATGTATATGTATTTTGTACCGGAGTCACCTAGTGCAG
The binding signal of the first is lower: 8900 fluorescence intensity (a.u.) for the first, 12800 fluorescence intensity (a.u.) for the second.

Compared with “CTGCCACCGGTCCCCGGGCCTCTTCCTCTGCCGCCTCGTTCGGAGTCACCTAGTGCAG”, “TTAATTAGCCGCGGCCTTCCTGCCTTTGTCACGTACTACTCGGAGTCACCTAGTGCAG” is lower in binding signal: 9050 fluorescence intensity (a.u.) for the first, 8830 fluorescence intensity (a.u.) for the second.

First: TCTCTCTGAACCTCCTTTGTTGCGTTGACTGTGCTCTCTGCGGAGTCACCTAGTGCAG
Second: TAACACTAGTGCTCTTTCGTTTGGCTTTATGCTCTTCTTTCGGAGTCACCTAGTGCAG
The binding signal of the first is higher: 15200 fluorescence intensity (a.u.) for the first, 12000 fluorescence intensity (a.u.) for the second.

First: ACCCAACCACCTAGCTATCCCCACACATGATCACACTAGCCGGAGTCACCTAGTGCAG
Second: CTGTCAAAATGTTTGTGGTATATTGTGCATCCTTTCTAATCGGAGTCACCTAGTGCAG
The binding signal of the first is lower: 8090 fluorescence intensity (a.u.) for the first, 9400 fluorescence intensity (a.u.) for the second.

Going from “TGGATCTCTGCCATGCTCTCTCACTGACATCGTGGGCCCACGGAGTCACCTAGTGCAG” to “CCCTTTCCTTTTCTTTTTTTTTCTCATTTTATCCACAATTCGGAGTCACCTAGTGCAG”, the binding signal falls from 10600 fluorescence intensity (a.u.) to 9870 fluorescence intensity (a.u.).

Compared with “AAGCTTCGTCATTTCGTTCCTCAGTAATATCTCATTTTCCCGGAGTCACCTAGTGCAG”, “TGGCGCCGCGGCCTGGCCGTTGACCGATCGCGATGGCGCGCGGAGTCACCTAGTGCAG” is lower in binding signal: 9070 fluorescence intensity (a.u.) for the first, 8980 fluorescence intensity (a.u.) for the second.

Compared with “GTATCAGTAGCCCTGCAGATTCTTGCTACCAGTCACACCTCGGAGTCACCTAGTGCAG”, “CCGTCGCAACCTCCATCTCCTCCGACGCTTCTCCGCTCCGCGGAGTCACCTAGTGCAG” is higher in binding signal: 8830 fluorescence intensity (a.u.) for the first, 9840 fluorescence intensity (a.u.) for the second.

Compared with “TAATGTGCCGCCTCCGACTCTCTTCTCTTCTTTGCCCTTGCGGAGTCACCTAGTGCAG”, “AACTCGAGCCTCTCTCTGTGTGTCTTTCCCACCATCTGTCCGGAGTCACCTAGTGCAG” is lower in binding signal: 10400 fluorescence intensity (a.u.) for the first, 8960 fluorescence intensity (a.u.) for the second.

First: ATGGTAGTCTGGTTCGGTCCGTGAGTTTTCTGATTTTGATCGGAGTCACCTAGTGCAG
Second: CGTCCCCGCCCGCCGCGGCCTCTCTCTCTCGATCGAATCTCGGAGTCACCTAGTGCAG
The binding signal of the first is higher: 9850 fluorescence intensity (a.u.) for the first, 8400 fluorescence intensity (a.u.) for the second.

First: CGCTGTACTGCCTTCCGTCTAGTAATTGCTAATTGCTACTCGGAGTCACCTAGTGCAG
Second: TCGGCATCGGACGGTCACCGACGTCTCTCAAGGCGGCGAACGGAGTCACCTAGTGCAG
The binding signal of the first is higher: 8270 fluorescence intensity (a.u.) for the first, 8040 fluorescence intensity (a.u.) for the second.

Going from “AAACGCCATCAGACGTTCGACACGTACACACGCCCTGCGGCGGAGTCACCTAGTGCAG” to “TTTCGTTTTCTCTTGGTCAACATTAATCCGCTCGATCGCCCGGAGTCACCTAGTGCAG”, the binding signal rises from 9730 fluorescence intensity (a.u.) to 9890 fluorescence intensity (a.u.).

Going from “GTTGTCATTTCTTAATTCATGCTGTCATAATCCGTTAGTCCGGAGTCACCTAGTGCAG” to “TGATACTCCCGGTCCCATGTCACCGACAAGTATAATCGTTCGGAGTCACCTAGTGCAG”, the binding signal falls from 8670 fluorescence intensity (a.u.) to 8060 fluorescence intensity (a.u.).

Going from “TCTCTCTTTTTTTAAGCACCTTTTCTGCCTTTTTTCTTTTCGGAGTCACCTAGTGCAG” to “TCCCGATATCATATTATAACCCTTCTAGAAATCTAATGTTCGGAGTCACCTAGTGCAG”, the binding signal falls from 12200 fluorescence intensity (a.u.) to 8160 fluorescence intensity (a.u.).

Going from “CTTTGATTTTTCAACACACGTTTGACCATTTGTTTTATATCGGAGTCACCTAGTGCAG” to “CACTTGCATCAACTCCTTTTCACTCCACTCACTTGCACTCCGGAGTCACCTAGTGCAG”, the binding signal rises from 10500 fluorescence intensity (a.u.) to 10800 fluorescence intensity (a.u.).

First: ACTGATCTTAATGCACGTCCATGGCTCATTGTCTCTGTTGCGGAGTCACCTAGTGCAG
Second: ACATGTTTGACCGTTCGTCTTATTCAAAAGTTAATTCTTTCGGAGTCACCTAGTGCAG
The binding signal of the first is lower: 8380 fluorescence intensity (a.u.) for the first, 10200 fluorescence intensity (a.u.) for the second.

Going from “CAACCCTCGCCGCCCAAATGCATACCTATATATATACTCCCGGAGTCACCTAGTGCAG” to “TTGCTACCTTGTTTCTAGAGTTAGTATGTTAGTATGTGTTCGGAGTCACCTAGTGCAG”, the binding signal rises from 8740 fluorescence intensity (a.u.) to 10100 fluorescence intensity (a.u.).

First: CAGCTTGAAATTAGGCCCAGTTTGTTTCGGTTCTTGGGCCCGGAGTCACCTAGTGCAG
Second: TCCCTTTTCGCTGCCCATATCTGAACCCCATGCCCGTGCCCGGAGTCACCTAGTGCAG
The binding signal of the first is lower: 8390 fluorescence intensity (a.u.) for the first, 10900 fluorescence intensity (a.u.) for the second.

Going from “CATCATGACTTATTATATTCACACCTCCGTGCAAACCTATCGGAGTCACCTAGTGCAG” to “GAAGGGTTTGTACAAGTGCTCAGGCTATTGGTATGTCCAACGGAGTCACCTAGTGCAG”, the binding signal falls from 8920 fluorescence intensity (a.u.) to 8280 fluorescence intensity (a.u.).

Compared with “AGTCGTGGCCCTCCACCCCAAGCCACCCACTTAAATTCCTCGGAGTCACCTAGTGCAG”, “CATTTTTCTAATTACAAAGTCCATTTCTTTTTATGTTTTCCGGAGTCACCTAGTGCAG” is lower in binding signal: 11200 fluorescence intensity (a.u.) for the first, 8830 fluorescence intensity (a.u.) for the second.

Going from “CATGTCCAACTTTAATTGTTCGTCTTTTTTTTGAAAAAACCGGAGTCACCTAGTGCAG” to “ACATATAAATTTTTAACTTTTCCATCACATTGTTTTAATTCGGAGTCACCTAGTGCAG”, the binding signal rises from 8630 fluorescence intensity (a.u.) to 10500 fluorescence intensity (a.u.).

First: GCCTATCCTAGCGTCGTCATCTTCCTCGCGCGATACGGTTCGGAGTCACCTAGTGCAG
Second: CACGCCCATCCGCATCACGCCGCGCCTCCTACACCGCGTCCGGAGTCACCTAGTGCAG
The binding signal of the first is lower: 9050 fluorescence intensity (a.u.) for the first, 12200 fluorescence intensity (a.u.) for the second.

Reference: publication PMC7819943, “Rice protein-binding microarrays: a tool to detect cis-acting elements near promoter regions in rice”
